These are yes or no findings as the source states them, for the method shown.
B1: GDI3ΔN20 (domain or fragment, UniProt Q99819 21-225)
chain: LCARVLLADKEGGPPAVDEVLDEAVPEYRAPGRKSLLEIRQLDPDDRSLAKYKRVLLGPLPPAVDPSLPNVQVTRLTLLSEQAPGPVVMDLTGDLAVLKDQVFVLKEGVDYRVKISFKVHREIVSGLKCLHHTYRRGLRVDKTVYMVGSYGPSAQEYEFVTPVEEAPRGALVRGPYLVVSLFTDDDRTHHLSWEWGLCICQDWKD
B2: GDI2 (protein, UniProt P52566 1-201)
chain: MTEKAPEPHVEEDDDDELDSKLNYKPPPQKSLKELQEMDKDDESLIKYKKTLLGDGPVVTDPKAPNVVVTRLTLVCESAPGPITMDLTGDLEALKKETIVLKEGSEYRVKIHFKVNRDIVSGLKYVQHTYRTGVKVDKATFMVGSYGPRPEEYEFLTPVEEAPKGMLARGTYHNKSFFTDDDKQDHLSWEWNLSIKKEWTE

Amino acid sequences for entries named in this document (tags omitted).
UniProt Q9H4E5: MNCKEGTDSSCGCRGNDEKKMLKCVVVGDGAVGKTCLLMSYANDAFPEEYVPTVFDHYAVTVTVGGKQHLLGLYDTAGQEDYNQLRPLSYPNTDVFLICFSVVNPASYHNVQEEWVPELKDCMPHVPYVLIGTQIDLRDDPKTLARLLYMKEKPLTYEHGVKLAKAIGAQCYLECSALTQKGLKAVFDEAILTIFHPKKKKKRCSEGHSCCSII

Molecular target: TCL (UniProt Q9H4E5)
Assay: stopped-flow fluorimetry; association (kobs) at one concentration: 2 µM GDI mixed with 0.2 µM mdGDP-bound RHO GTPase; 25 °C, 30 mM Tris/HCl pH 7.5, 10 mM K2HPO4/KH2PO4 pH 7.5, 5 mM MgCl2, 3 mM DTT; both purified

Binder	binding
B1	no binding (tested: 2 µM GDI, 0.2 µM mdGDP-bound GTPase)
B2	no binding (tested: 2 µM GDI, 0.2 µM mdGDP-bound GTPase)

Reference: paper PMC8622166
